# The supplement of paper PMC10849652
# Amino acid sequences for entries named in this document (tags omitted). A change or cut given only in a name is not applied to a line headed by its entry.
# UniProt Q9H0R4: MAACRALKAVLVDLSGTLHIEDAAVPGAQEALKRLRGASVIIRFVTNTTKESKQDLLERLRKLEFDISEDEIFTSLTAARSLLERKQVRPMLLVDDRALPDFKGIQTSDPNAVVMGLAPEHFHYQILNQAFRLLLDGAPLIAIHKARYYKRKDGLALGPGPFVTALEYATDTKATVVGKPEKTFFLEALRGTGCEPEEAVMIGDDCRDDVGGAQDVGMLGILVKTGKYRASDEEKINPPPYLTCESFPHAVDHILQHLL
# UniProt Q8N4P3, whole entry, looked up: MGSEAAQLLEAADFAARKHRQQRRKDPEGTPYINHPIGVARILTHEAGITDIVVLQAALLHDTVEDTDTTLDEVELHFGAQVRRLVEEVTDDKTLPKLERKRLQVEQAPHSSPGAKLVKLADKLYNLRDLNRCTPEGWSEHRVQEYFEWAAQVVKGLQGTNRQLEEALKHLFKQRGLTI
# UniProt P09211: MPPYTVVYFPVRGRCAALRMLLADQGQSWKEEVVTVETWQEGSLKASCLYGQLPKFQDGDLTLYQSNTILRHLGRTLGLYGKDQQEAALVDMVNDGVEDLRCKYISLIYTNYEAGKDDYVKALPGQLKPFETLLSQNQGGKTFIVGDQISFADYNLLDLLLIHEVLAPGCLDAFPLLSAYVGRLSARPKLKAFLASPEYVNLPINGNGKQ
# UniProt Q92522: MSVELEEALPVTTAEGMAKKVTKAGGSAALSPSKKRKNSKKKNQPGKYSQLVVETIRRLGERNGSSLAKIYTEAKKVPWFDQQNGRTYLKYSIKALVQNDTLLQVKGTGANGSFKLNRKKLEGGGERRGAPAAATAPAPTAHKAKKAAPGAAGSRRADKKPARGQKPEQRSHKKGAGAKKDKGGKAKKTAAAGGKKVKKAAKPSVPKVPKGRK
# UniProt Q12789: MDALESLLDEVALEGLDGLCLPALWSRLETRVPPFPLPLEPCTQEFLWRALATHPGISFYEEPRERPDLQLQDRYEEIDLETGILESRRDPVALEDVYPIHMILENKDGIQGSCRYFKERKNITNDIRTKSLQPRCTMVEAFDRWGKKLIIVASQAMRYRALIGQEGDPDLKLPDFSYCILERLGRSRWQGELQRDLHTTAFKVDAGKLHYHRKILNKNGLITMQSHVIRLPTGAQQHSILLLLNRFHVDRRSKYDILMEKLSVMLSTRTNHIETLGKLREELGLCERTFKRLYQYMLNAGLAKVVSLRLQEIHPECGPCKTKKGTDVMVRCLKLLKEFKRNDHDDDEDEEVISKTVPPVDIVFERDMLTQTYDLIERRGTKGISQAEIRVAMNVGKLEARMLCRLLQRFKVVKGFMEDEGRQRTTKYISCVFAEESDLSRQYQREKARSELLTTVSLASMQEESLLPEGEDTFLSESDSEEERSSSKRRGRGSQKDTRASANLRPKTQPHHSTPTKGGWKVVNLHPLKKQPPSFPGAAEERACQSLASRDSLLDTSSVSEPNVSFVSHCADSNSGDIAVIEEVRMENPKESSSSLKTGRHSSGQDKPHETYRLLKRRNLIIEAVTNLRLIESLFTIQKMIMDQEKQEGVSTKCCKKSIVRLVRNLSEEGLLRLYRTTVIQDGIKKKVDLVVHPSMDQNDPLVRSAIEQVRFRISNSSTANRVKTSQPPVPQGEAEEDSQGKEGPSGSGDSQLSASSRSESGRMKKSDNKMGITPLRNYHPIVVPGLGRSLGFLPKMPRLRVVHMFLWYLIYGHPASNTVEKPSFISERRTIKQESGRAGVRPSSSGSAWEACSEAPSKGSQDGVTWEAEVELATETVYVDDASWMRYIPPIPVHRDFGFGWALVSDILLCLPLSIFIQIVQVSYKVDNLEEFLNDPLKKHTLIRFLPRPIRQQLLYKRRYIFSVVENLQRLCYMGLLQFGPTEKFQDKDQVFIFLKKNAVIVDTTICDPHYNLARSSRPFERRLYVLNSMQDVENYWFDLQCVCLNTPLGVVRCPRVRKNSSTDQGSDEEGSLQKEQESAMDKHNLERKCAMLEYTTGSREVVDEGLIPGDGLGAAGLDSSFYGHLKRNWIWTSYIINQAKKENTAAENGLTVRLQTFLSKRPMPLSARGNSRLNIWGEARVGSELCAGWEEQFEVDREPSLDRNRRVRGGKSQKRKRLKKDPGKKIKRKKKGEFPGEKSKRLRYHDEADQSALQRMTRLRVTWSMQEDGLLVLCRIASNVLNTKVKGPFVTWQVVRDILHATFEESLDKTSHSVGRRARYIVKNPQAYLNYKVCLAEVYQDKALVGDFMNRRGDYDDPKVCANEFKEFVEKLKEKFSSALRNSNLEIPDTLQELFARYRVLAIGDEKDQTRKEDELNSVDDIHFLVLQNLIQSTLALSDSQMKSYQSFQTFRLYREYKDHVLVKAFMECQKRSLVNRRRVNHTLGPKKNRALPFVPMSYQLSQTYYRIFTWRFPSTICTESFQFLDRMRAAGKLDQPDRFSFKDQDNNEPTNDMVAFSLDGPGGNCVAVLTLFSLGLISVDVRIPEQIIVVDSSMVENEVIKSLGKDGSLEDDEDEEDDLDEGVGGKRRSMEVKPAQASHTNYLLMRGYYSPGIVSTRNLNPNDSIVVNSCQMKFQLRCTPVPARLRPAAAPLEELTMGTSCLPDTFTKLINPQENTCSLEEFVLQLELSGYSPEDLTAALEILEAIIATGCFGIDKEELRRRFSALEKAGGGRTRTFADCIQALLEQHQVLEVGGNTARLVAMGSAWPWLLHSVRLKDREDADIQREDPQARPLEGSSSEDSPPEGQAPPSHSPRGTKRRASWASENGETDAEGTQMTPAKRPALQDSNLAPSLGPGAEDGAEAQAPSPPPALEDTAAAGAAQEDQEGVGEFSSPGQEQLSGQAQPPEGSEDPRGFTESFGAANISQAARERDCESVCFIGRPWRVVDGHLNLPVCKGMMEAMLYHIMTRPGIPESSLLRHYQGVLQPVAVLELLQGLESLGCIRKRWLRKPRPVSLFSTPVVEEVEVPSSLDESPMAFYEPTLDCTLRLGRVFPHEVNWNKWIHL
# UniProt P49841: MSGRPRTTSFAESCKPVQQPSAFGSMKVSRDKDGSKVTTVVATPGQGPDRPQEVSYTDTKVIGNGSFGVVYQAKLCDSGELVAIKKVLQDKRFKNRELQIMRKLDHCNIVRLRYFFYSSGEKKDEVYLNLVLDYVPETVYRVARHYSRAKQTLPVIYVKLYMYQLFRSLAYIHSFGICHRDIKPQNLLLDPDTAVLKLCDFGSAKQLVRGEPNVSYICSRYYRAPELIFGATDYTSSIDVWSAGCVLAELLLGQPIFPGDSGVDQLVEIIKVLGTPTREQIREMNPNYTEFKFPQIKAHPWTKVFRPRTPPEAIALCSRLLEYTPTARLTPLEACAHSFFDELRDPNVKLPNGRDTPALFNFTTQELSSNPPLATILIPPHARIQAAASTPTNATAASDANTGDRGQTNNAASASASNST
# UniProt Q96CS2: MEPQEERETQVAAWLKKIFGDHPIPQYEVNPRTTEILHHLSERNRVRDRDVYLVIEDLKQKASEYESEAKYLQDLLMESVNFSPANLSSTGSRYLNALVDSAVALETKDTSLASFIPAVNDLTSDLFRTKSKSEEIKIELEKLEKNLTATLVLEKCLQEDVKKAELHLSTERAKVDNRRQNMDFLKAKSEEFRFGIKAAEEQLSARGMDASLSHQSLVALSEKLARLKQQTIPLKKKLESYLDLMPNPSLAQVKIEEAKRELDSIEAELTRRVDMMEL
# UniProt P69891: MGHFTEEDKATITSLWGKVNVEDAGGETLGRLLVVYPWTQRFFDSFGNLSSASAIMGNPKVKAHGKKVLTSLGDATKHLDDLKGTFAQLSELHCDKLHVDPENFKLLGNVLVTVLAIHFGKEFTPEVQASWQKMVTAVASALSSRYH
# UniProt Q16774: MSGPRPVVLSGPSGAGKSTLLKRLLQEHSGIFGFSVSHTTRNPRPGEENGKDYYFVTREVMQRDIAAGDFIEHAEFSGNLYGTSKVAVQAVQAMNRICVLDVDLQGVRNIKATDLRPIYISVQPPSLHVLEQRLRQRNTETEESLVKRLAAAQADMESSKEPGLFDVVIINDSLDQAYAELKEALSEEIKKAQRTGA
# UniProt P28161: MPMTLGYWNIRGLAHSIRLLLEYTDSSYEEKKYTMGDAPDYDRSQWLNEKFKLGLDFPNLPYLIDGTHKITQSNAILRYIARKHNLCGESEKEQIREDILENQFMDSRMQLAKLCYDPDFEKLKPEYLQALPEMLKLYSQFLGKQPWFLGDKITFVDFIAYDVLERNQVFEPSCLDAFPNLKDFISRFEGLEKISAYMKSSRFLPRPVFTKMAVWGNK
# UniProt P48637: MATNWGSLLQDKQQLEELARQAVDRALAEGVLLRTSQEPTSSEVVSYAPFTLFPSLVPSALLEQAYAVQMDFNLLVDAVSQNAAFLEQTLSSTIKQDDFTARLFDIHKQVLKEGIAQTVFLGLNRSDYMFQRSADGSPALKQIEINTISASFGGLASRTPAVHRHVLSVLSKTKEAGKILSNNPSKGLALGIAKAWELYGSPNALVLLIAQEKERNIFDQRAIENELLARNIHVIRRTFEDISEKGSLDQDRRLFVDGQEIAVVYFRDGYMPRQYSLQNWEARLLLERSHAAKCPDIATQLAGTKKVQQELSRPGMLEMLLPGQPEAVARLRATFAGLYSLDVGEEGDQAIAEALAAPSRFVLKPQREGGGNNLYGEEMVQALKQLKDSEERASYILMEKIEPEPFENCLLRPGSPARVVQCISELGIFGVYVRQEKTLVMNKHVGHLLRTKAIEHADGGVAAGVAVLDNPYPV
# UniProt P13807: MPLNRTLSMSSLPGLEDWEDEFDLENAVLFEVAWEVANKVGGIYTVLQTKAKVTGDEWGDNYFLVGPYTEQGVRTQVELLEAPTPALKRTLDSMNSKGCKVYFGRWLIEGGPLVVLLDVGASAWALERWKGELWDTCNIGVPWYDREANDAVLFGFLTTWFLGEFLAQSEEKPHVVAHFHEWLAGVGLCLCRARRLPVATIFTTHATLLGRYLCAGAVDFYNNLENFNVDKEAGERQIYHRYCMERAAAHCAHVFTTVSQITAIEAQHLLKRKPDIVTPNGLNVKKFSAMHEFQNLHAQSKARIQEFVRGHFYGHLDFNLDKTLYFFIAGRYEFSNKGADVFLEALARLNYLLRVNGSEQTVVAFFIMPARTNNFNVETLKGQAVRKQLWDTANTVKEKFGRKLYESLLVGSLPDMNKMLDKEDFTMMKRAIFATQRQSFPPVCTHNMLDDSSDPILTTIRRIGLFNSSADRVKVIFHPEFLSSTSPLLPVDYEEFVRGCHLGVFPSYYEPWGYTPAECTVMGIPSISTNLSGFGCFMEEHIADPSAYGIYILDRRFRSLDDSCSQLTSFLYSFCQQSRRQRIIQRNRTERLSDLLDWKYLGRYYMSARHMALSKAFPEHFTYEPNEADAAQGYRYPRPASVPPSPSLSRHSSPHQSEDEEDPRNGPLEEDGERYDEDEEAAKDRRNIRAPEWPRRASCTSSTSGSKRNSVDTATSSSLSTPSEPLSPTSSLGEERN
# UniProt Q8WUI4: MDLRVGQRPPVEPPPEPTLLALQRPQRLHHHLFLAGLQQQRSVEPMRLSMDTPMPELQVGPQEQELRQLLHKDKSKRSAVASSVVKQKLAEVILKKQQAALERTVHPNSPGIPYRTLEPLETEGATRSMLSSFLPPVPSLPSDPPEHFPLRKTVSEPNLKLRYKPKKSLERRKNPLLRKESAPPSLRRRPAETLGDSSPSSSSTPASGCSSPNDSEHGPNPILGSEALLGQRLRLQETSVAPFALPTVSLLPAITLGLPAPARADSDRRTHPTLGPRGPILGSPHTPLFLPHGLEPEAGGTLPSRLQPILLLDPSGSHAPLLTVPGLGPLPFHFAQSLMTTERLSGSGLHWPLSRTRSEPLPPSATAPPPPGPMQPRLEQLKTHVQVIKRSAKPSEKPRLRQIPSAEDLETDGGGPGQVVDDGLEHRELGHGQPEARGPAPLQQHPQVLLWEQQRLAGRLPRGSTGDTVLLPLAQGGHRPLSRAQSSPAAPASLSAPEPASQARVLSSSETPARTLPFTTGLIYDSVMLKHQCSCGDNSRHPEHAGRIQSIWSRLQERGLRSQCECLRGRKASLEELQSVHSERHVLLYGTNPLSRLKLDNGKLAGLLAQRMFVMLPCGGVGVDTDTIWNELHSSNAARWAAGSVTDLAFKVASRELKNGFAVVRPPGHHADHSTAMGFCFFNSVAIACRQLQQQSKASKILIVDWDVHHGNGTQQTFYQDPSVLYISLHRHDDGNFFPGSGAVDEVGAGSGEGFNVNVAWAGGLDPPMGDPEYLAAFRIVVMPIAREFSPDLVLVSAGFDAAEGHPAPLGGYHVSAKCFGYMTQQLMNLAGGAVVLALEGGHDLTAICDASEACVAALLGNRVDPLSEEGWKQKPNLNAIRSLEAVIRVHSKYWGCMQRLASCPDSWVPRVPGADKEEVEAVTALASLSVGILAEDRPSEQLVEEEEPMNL
# This is one part of the list.
# Legend:
# Experiment in all cases: log2 fold change, soluble protein after heating vs DMSO (PISA); higher = thermal stabilisation; K562 lysate, 10 uM; active = over 0.2 and 3.5 SD of the protein, either way, in both replicates (recomputed)
# vemurafenib = compound: CCCS(=O)(=O)Nc1ccc(F)c(C(=O)c2c[nH]c3ncc(-c4ccc(Cl)cc4)cc23)c1F [vemurafenib]
# Outline: (§1)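 Dounce homogenisation of K562 pellets in PBS pH 7.4 with 1 mM MgCl2 produced a crude extract, used at 1 mg/mL protein. Exposure to 10 μM compound lasted 30 min, and aliquots were then heated for 3 min across 48°C-58°C, pooled and brought to 0.5% NP-40 at 4°C. The supernatant after 21,000xg for 90 min was quantified by TMTpro 16plex LC-MS/MS with channel sums equalised. Duplicate values are given as log-two fold change in thermal stability relative to solvent controls.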
# [1] = compound: CCCS(=O)(=O)Nc1ccc(F)c(C(=O)c2c[nH]c3ncc(Cl)cc23)c1F
# Outline: as §1
# barasertib = compound: CCN(CCCOc1ccc2c(Nc3cc(CC(=O)Nc4cccc(F)c4)[nH]n3)ncnc2c1)CCOP(=O)(O)O [barasertib]
# Outline: as §1
# [2] = compound: CC[C@@H]1C(=O)N(C)c2cnc(Nc3ccc(C(=O)NC4CCN(C)CC4)cc3OC)nc2N1C1CCCC1
# Outline: as §1
# volasertib = compound: CC[C@@H]1C(=O)N(C)c2cnc(Nc3ccc(C(=O)N[C@H]4CC[C@H](N5CCN(CC6CC6)CC5)CC4)cc3OC)nc2N1C(C)C [volasertib]
# Outline: as §1
# [3] = compound: CCn1c(C(=O)N(C2CC2)C2CC2)cc2c3c(ncn3C)c(Nc3cc(C)n(C)n3)nc21
# Outline: as §1
# [4] = compound: CCn1cc(-c2ccnc3[nH]c(-c4cccc(CN(C)C)c4)cc23)c(-c2ccc(NC(=O)N(C)C)cc2)n1
# Outline: as §1
# [5] = compound: CN1CCC(CNc2ccc3ncc(-c4cccc(OC(F)(F)F)c4)n3n2)CC1
# Outline: as §1
# saracatinib = compound: CN1CCN(CCOc2cc(OC3CCOCC3)c3c(Nc4c(Cl)ccc5c4OCO5)ncnc3c2)CC1 [saracatinib]
# Outline: as §1
# sotrastaurin = compound: CN1CCN(c2nc(C3=C(c4c[nH]c5ccccc45)C(=O)NC3=O)c3ccccc3n2)CC1 [sotrastaurin]
# Outline: as §1
# alvocidib = compound: CN1CC[C@H](c2c(O)cc(O)c3c(=O)cc(-c4ccccc4Cl)oc23)[C@H](O)C1 [alvocidib]
# Outline: as §1
# Tubastatin A = compound: CN1CCc2c(c3ccccc3n2Cc2ccc(C(=O)NO)cc2)C1 [Tubastatin A]
# Outline: as §1
# [6] = compound: CNC(=O)C1=CC=CC=C1NC2=NC(=NC=C2Cl)NC3=C(C=C(C=C3)N4CCOCC4)OC
# Outline: as §1
# defactinib = compound: CNC(=O)c1ccc(Nc2ncc(C(F)(F)F)c(NCc3nccnc3N(C)S(C)(=O)=O)n2)cc1 [defactinib]
# Outline: as §1
# [7] = compound: CNc1nc(-c2ccc3c(N)n[nH]c3c2)cc(N2C[C@@H](C(=O)NC3CCCCC3)CC[C@H]2C)n1
# Outline: as §1
# encorafenib = compound: COC(=O)N[C@@H](C)CNc1nccc(-c2cn(C(C)C)nc2-c2cc(Cl)cc(NS(C)(=O)=O)c2F)n1 [encorafenib]
# Outline: as §1
# [8] = compound: COC(=O)[C@H](CCSC)NC(=O)C1=C(C=C(C=C1)NC[C@H](CS)N)C2=CC=CC=C2
# Outline: as §1
# alisertib = compound: COc1cc(Nc2ncc3c(n2)-c2ccc(Cl)cc2C(c2c(F)cccc2OC)=NC3)ccc1C(=O)O [alisertib]
# Outline: as §1
# [9] = compound: COc1cc2nc(-c3cc(F)ccc3O)nc(N[C@@H]3CNC[C@H]3C(C)(C)O)c2cc1OC
# Outline: as §1
# gefitinib = compound: COc1cc2ncnc(Nc3ccc(F)c(Cl)c3)c2cc1OCCCN1CCOCC1 [gefitinib]
# Outline: as §1
Target,log2 fold change (vemurafenib),log2 fold change [1],log2 fold change (barasertib),log2 fold change [2],log2 fold change (volasertib),log2 fold change [3],log2 fold change [4],log2 fold change [5],log2 fold change (saracatinib),log2 fold change (sotrastaurin),log2 fold change (alvocidib),log2 fold change (Tubastatin A),log2 fold change [6],log2 fold change (defactinib),log2 fold change [7],log2 fold change (encorafenib),log2 fold change [8],log2 fold change (alisertib),log2 fold change [9],log2 fold change (gefitinib)
HDHD2 (UniProt Q9H0R4),inactive: -0.018,inactive: -0.02,inactive: -0.026,inactive: -0.019,inactive: 0.032,inactive: 0.012,inactive: 0.011,inactive: 0.016,inactive: -0.011,inactive: 0.046,inactive: -0.021,inactive: 0.027,inactive: -0.019,inactive: -0.014,inactive: 0.001,inactive: 0.013,inactive: -0.032,inactive: -0.011,inactive: 0.012,inactive: -0.02
HDDC3 (UniProt Q8N4P3),inactive: -0.026,inactive: -0.028,inactive: 0.034,inactive: -0.059,inactive: -0.067,inactive: -0.029,inactive: -0.029,inactive: 0.065,inactive: 0.009,inactive: 0.038,inactive: 0.008,inactive: 0.046,inactive: -0.025,inactive: -0.038,inactive: -0.13,inactive: 0.058,inactive: 0.043,inactive: 0.005,inactive: -0.014,inactive: -0.01
GSTP1 (UniProt P09211),inactive: -0.007,inactive: -0.017,inactive: 0.008,inactive: 0.003,inactive: 0.034,active: 0.324,inactive: -0.059,inactive: 0.021,inactive: 0,inactive: -0.002,inactive: 0.04,inactive: -0.057,inactive: -0.017,inactive: 0.008,inactive: -0.036,inactive: -0.052,inactive: 0.061,inactive: 0.037,inactive: -0.008,inactive: 0.007
H1FX (UniProt Q92522),inactive: -0.007,inactive: 0.01,inactive: -0.004,inactive: -0.046,inactive: -0.017,inactive: -0.026,inactive: -0.008,inactive: -0.016,inactive: 0.001,inactive: 0.032,inactive: 0.005,inactive: 0.015,inactive: -0.007,inactive: 0.002,inactive: -0.084,inactive: 0.028,inactive: 0.041,inactive: 0.016,inactive: -0.017,inactive: -0.004
GTF3C1 (UniProt Q12789),inactive: 0.019,inactive: 0.014,inactive: 0.055,inactive: -0.02,inactive: -0.032,inactive: 0.034,inactive: -0.131,inactive: 0.077,inactive: -0.013,inactive: -0.003,inactive: -0.064,inactive: -0.134,inactive: 0.01,inactive: -0.009,inactive: -0.004,inactive: 0.057,inactive: 0.089,inactive: 0.014,inactive: -0.004,inactive: 0.008
HDHD5 (UniProt Q9BXW7),inactive: -0.033,inactive: 0.043,inactive: -0.137,inactive: -0.076,inactive: -0.02,inactive: 0.01,inactive: 0,inactive: 0.011,inactive: -0.06,inactive: 0.05,inactive: -0.097,inactive: -0.078,inactive: 0.041,inactive: -0.069,inactive: 0.034,inactive: 0.026,inactive: 0.024,inactive: 0.031,inactive: 0.012,inactive: -0.063
GSK3B isoform 2 (UniProt P49841),inactive: -0.009,inactive: 0.038,inactive: 0.026,inactive: -0.015,inactive: -0.093,inactive: -0.011,inactive: -0.013,inactive: 0.096,inactive: -0.049,inactive: 0.601,inactive: 0.518,inactive: -0.077,inactive: 0.015,inactive: 0.562,inactive: 0.114,inactive: 0.425,inactive: -0.114,,inactive: 0,inactive: 0.029
HAUS1 (UniProt Q96CS2),inactive: -0.001,inactive: 0.007,inactive: 0.082,inactive: 0.031,inactive: -0.007,inactive: 0.005,inactive: -0.029,inactive: -0.084,inactive: 0.001,inactive: -0.012,inactive: 0.034,inactive: -0.047,inactive: 0.029,inactive: 0.022,inactive: -0.005,inactive: 0.023,inactive: -0.179,inactive: 0.026,inactive: -0.037,inactive: 0.005
HBG1 (UniProt P69891),inactive: 0.006,inactive: -0.003,inactive: 0.079,inactive: 0.023,inactive: 0.051,inactive: -0.001,inactive: -0.015,inactive: -0.041,inactive: -0.007,inactive: -0.047,inactive: 0.086,inactive: 0.056,inactive: 0.017,inactive: 0.091,inactive: 0.014,inactive: 0.007,inactive: -0.034,inactive: 0.022,inactive: -0.026,inactive: -0.119
GUK1 isoform 2 (UniProt Q16774),inactive: 0.012,inactive: 0.017,inactive: -0.02,inactive: 0.017,inactive: -0.04,inactive: -0.009,inactive: -0.197,inactive: 0.112,inactive: -0.011,inactive: 0.086,inactive: -0.026,inactive: 0.018,inactive: 0.039,inactive: 0.024,inactive: -0.055,inactive: 0.013,inactive: 0.004,inactive: 0.033,inactive: -0.005,inactive: -0.042
GSTM2 (UniProt P28161),inactive: -0.005,inactive: 0.07,inactive: 0.024,inactive: 0.015,inactive: 0.005,inactive: -0.027,inactive: 0.131,inactive: -0.091,inactive: 0.003,,inactive: 0.079,inactive: 0.045,inactive: 0.009,inactive: 0.036,inactive: -0.016,inactive: -0.024,inactive: 0.068,inactive: 0.01,inactive: -0.015,inactive: 0.034
GSS (UniProt P48637),inactive: -0.022,inactive: 0.012,inactive: -0.027,inactive: 0.008,inactive: 0.016,inactive: 0.033,inactive: -0.051,inactive: 0.037,inactive: 0.01,inactive: 0.012,inactive: 0.002,inactive: 0.01,inactive: 0,inactive: 0.016,inactive: -0.007,inactive: 0.004,inactive: -0.019,inactive: -0.006,inactive: -0.009,inactive: 0.016
GTF2E2 (UniProt P29084),inactive: 0.022,inactive: 0.014,inactive: 0.066,inactive: 0.042,inactive: -0.006,inactive: 0.031,inactive: 0.001,inactive: -0.048,inactive: -0.014,inactive: 0.016,inactive: -0.005,inactive: -0.074,inactive: -0.011,inactive: -0.061,inactive: 0.003,inactive: 0.025,inactive: -0.106,inactive: -0.054,inactive: -0.017,inactive: 0.021
GYS1 (UniProt P13807),inactive: 0.025,inactive: 0.009,inactive: 0.034,inactive: 0.046,inactive: -0.043,inactive: 0.029,inactive: 0.045,inactive: 0.026,inactive: -0.006,inactive: 0.035,inactive: -0.033,inactive: -0.101,inactive: 0.02,inactive: -0.069,inactive: 0.016,inactive: 0.007,inactive: 0.028,inactive: -0.018,inactive: 0.003,inactive: 0.005
HDAC7 isoform 5 (UniProt Q8WUI4),inactive: -0.02,inactive: 0.023,inactive: -0.032,inactive: -0.043,inactive: 0.003,inactive: 0.006,inactive: 0.01,inactive: -0.013,inactive: 0.021,inactive: -0.016,inactive: -0.013,,inactive: 0.052,inactive: -0.013,inactive: 0.079,inactive: 0.034,inactive: -0.025,inactive: -0.029,inactive: -0.019,inactive: 0.021
HEATR5B (UniProt Q9P2D3),inactive: 0.03,inactive: 0.001,inactive: 0.112,inactive: -0.012,inactive: -0.037,inactive: -0.093,inactive: 0.047,inactive: -0.037,inactive: -0.019,inactive: -0.017,inactive: 0.001,inactive: 0.015,inactive: 0.02,inactive: -0.002,inactive: 0.01,inactive: 0.013,inactive: -0.009,inactive: -0.022,inactive: 0.005,inactive: 0.007

# Reprinted from the results shown (two entries):
Target,log2 fold change (vemurafenib),log2 fold change [1],log2 fold change (barasertib),log2 fold change [2],log2 fold change (volasertib),log2 fold change [3],log2 fold change [4],log2 fold change [5],log2 fold change (saracatinib),log2 fold change (sotrastaurin),log2 fold change (alvocidib),log2 fold change (Tubastatin A),log2 fold change [6],log2 fold change (defactinib),log2 fold change [7],log2 fold change (encorafenib),log2 fold change [8],log2 fold change (alisertib),log2 fold change [9],log2 fold change (gefitinib)
HAUS1 (UniProt Q96CS2),inactive: -0.001,inactive: 0.007,inactive: 0.082,inactive: 0.031,inactive: -0.007,inactive: 0.005,inactive: -0.029,inactive: -0.084,inactive: 0.001,inactive: -0.012,inactive: 0.034,inactive: -0.047,inactive: 0.029,inactive: 0.022,inactive: -0.005,inactive: 0.023,inactive: -0.179,inactive: 0.026,inactive: -0.037,inactive: 0.005
HBG1 (UniProt P69891),inactive: 0.006,inactive: -0.003,inactive: 0.079,inactive: 0.023,inactive: 0.051,inactive: -0.001,inactive: -0.015,inactive: -0.041,inactive: -0.007,inactive: -0.047,inactive: 0.086,inactive: 0.056,inactive: 0.017,inactive: 0.091,inactive: 0.014,inactive: 0.007,inactive: -0.034,inactive: 0.022,inactive: -0.026,inactive: -0.119
